According to PMC11136987:
These are yes or no findings as the source states them, for the method shown. For part of these data: Binding seen in cells or lysates may run through a third protein. Some binding calls cover weakened binding; strength is not graded here.

Amino acid sequences for entries named in this document (tags omitted). Residues count along the entry.
UniProt Q8R4B8: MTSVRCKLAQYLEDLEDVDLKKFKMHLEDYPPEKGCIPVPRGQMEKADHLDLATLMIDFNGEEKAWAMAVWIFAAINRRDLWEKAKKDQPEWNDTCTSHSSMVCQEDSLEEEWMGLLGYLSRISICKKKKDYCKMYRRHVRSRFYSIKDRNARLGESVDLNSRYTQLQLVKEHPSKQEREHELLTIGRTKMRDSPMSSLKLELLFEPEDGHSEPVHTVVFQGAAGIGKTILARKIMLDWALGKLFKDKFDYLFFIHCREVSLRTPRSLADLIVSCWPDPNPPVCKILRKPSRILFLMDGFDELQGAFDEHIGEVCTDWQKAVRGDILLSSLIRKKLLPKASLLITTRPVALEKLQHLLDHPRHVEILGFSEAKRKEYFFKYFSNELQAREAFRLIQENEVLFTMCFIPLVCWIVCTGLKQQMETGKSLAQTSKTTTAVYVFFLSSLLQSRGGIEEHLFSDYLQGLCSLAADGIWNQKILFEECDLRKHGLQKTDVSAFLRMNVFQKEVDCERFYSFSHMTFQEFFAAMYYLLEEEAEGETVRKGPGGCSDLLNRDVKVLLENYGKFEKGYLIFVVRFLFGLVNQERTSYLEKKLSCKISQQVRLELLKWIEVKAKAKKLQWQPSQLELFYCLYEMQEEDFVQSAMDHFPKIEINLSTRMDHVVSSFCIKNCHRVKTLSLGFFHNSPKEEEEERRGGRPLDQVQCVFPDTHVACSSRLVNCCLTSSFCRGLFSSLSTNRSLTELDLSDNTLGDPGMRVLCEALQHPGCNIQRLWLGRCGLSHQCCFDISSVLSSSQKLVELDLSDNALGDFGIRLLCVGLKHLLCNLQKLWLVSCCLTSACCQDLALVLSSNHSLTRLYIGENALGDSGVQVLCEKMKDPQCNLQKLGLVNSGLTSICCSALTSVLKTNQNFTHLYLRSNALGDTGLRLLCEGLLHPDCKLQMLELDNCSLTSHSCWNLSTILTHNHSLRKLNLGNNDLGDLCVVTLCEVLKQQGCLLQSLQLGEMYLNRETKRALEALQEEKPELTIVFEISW
UniProt Q96P20, residues 1-536: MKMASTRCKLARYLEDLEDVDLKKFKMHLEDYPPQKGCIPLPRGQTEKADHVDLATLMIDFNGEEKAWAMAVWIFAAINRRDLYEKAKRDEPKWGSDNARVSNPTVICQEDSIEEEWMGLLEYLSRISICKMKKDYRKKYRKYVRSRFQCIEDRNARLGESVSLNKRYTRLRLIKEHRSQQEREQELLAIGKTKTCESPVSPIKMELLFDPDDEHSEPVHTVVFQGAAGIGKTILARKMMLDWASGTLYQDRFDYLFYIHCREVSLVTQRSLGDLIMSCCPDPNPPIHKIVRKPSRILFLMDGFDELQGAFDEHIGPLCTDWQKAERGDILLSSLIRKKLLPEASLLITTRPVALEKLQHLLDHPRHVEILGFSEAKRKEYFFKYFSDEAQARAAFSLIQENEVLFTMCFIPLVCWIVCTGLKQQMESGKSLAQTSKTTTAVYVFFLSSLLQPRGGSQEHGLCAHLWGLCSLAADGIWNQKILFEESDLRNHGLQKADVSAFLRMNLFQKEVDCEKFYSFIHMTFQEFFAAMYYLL
UniProt Q9ULZ3: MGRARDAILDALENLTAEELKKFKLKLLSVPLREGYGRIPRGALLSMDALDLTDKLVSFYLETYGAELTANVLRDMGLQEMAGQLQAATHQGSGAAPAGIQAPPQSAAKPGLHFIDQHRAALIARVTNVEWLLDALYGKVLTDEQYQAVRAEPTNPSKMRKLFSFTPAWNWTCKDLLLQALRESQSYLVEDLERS
UniProt O35387: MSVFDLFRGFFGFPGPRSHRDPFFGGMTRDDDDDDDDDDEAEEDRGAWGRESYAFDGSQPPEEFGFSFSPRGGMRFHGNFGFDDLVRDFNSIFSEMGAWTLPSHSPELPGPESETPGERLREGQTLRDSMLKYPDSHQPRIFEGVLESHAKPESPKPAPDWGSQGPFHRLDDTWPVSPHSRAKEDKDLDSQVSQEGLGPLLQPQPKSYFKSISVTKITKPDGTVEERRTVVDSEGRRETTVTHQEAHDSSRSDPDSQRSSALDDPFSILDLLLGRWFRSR
UniProt O00165: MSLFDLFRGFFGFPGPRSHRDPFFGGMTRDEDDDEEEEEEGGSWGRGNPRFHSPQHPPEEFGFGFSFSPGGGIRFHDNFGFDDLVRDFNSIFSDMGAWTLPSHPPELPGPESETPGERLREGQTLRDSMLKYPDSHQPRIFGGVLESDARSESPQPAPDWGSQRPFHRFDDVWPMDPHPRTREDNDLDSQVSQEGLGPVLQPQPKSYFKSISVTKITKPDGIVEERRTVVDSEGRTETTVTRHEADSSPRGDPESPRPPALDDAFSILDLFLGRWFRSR

Columns and labels:
[1] = biological target: NLRP3 (endogenous, mouse microglia BV2 and mouse brain) (mouse (endogenous in BV2 cells and C57BL/6 brain)) (UniProt Q8R4B8); test: co-IP; BV2 cell lysates, ASC/HAX-1/NLRP3 antibody crosslinked to magnetic beads (Pierce Crosslink Magnetic IP Kit), 4 °C 1 h, western blot; control and OGD/R cells; HAX-1 NC, OE, KD1 and KD2 groups
[2] = biological target: recombinant partial NLRP3 1-536aa (UniProt Q96P20); test: BLI; sequential binding: NLRP3 1-536 on SA biosensors, first 25/50/100 nM HAX-1 then 100 nM ASC, or first 25/50/100 nM ASC then 100 nM HAX-1; PBS; both purified
[3] = biological target: recombinant full-length ASC (UniProt Q9ULZ3); test: BLI; Octet RED96; HAX-1 against ASC, performed as for NLRP3; which of the two was immobilised is not stated; PBS; both purified

binding [1]	binding [2]	binding [3]	Substance
binds	–	–	HAX-1 (endogenous, mouse microglia BV2 and mouse brain) (from UniProt O35387 1-280)
–	binds	no binding	recombinant full-length HAX-1 (from UniProt O00165 1-279)
